Results deposited as PubChem BioAssay AID504808 (Drosophila RNAi Screening Center, 2011).
The deposit covers about 21,000 reagents; below is an unselected part of those that have a named target and a result. Over the whole deposit, 18 (0.084%) are marked active. 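Raw counts without plate normalisation, one of two replicates; the ratio scores behind the calls were not deposited.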 Entries without a mark were called inactive. Names joined by + are all predicted targets of the reagent. Reagent sequences are not shown. Not given: the amount of reagent, the time to read-out.

- Test: 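Chromatin factors that keep E2F targets switched off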 (primary screen)
- System: Drosophila S2 cells
- Reagents: long dsRNA against Drosophila genes
- Measured: 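Firefly luciferase driven by E2F sites, normalised to Renilla luciferase on the same minimal promoter, measured by plate reader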
- Direction: E2F firefly: higher = more E2F reporter activity; Renilla normaliser: higher = more normaliser reporter signal
- Call rule: 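a knock-down counted as active when the firefly/Renilla E2F signal rose above 50%, a threshold chosen arbitrarily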

gene	dsRNA	E2F firefly, rep 1	Renilla normaliser, rep 1
Mpi (Mannose phosphate isomerase)	DRSC16417	1.44e5	7323
CG15597	DRSC12283	1.28e5	6231
mtg (mind the gap)	DRSC16256	1.31e5	6724
CG11226	DRSC11639	1.42e5	6915
CG14631	DRSC17792	35425	3379
CG14631	DRSC17941	51149	4621
Cul4 (Cullin 4)	DRSC07243	2937	235
CG13223	DRSC06344	1.01e5	4290
CG6479	DRSC10647	63609	3208
Fpgs2 (Folylpolyglutamate synthase 2)	DRSC00600	1.48e5	5054
CG43127	DRSC09039	1.28e5	4936
snRNA:U1:95Cc + snRNA:U1:95Cb	DRSC13641	86424	3093
CG15385	DRSC00399	1.69e5	7785
CG33013 (retired record)	DRSC06286	89862	4066
CG42741	DRSC04593	1.00e5	4529
EloB (Elongin B)	DRSC16663	1.39e5	6210
Or13a (Odorant receptor 13a)	DRSC20265	2.35e5	6864
D2hgdh (D-2-hydroxyglutaric acid dehydrogenase)	DRSC18577	1811	812
CG33325	DRSC12699	78941	3740
CG8833	DRSC11050	78525	3711
Klp59D (Kinesin-like protein at 59D)	DRSC04118	1.11e5	4582
Ppr-Y	DRSC20892	82078	2761
Ir60e (Ionotropic receptor 60e)	DRSC04227	1.03e5	4405
CG13319	DRSC06356	51415	3287
mor (moira)	DRSC15378	1.18e5	7891
CG7166	DRSC11809	1.43e5	7205
Mekk1	DRSC16302	81671	3446
Mekk1	DRSC16303	1.51e5	7211
mRpS9 (mitochondrial ribosomal protein S9)	DRSC12645	72715	2974
mRpS9 (mitochondrial ribosomal protein S9)	DRSC15456	1.57e5	7262
CG30395	DRSC03896	1.28e5	5351
CG1695	DRSC20538	1.35e5	6510
CG2200	DRSC19840	73962	4696
CG12984	DRSC11693	1.33e5	7344
Cc2d2a (Coiled-coil and C2 domain containing 2A)	DRSC06750	1.40e5	5685
Cc2d2a (Coiled-coil and C2 domain containing 2A)	DRSC06779	1.51e5	5511
CG11563	DRSC14327	1.14e5	5567
ScpX	DRSC03430	81847	3375
hfp (half pint)	DRSC08731	84200	4310
hfp (half pint)	DRSC08732	94640	4146
Hsc70-2 (Heat shock protein 70 cognate 2)	DRSC16710	90120	4653
ATP7	DRSC19819	1.35e5	5658
hrm (hermes)	DRSC04853	1.15e5	5085
Cpr49Ad (Cuticular protein 49Ad)	DRSC07284	92115	4011
TH1	DRSC20289	9198	820
SerRS-m (Seryl-tRNA synthetase, mitochondrial)	DRSC14096	1.16e5	6726
Elovl7 (ELOVL fatty acid elongase 7)	DRSC15452	1.41e5	6954
Toll-4	DRSC03458	1.72e5	5599
CG33758	DRSC05158	1.39e5	6798
salr (spalt-related)	DRSC03607	1.42e5	5243
CG8065	DRSC10959	1.14e5	6661
CG4250	DRSC04455	1.17e5	4748
blot (bloated tubules)	DRSC09485	1.40e5	4081
blot (bloated tubules)	DRSC11328	64450	3314
Hey (Hairy/E(spl)-related with YRPW motif)	DRSC07440	1.00e5	3776
CG13506	DRSC04150	98588	3850
Aladin	DRSC18121	6998	792
